# Assay results published in PubChem BioAssay AID651845 (Broad Institute, 2012).
# Inconclusive means that the source gave no clear call.
# Assay: growth inhibition of intracellular T. cruzi, dose response, cell-based, plate reader, dry powder samples (AID 651845)
# Conditions: T. cruzi beta-gal in NIH3T3, GalScreen luminescence, 90 h; at 16 µM (top of the series);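 active means every replicate test called active, with signal dropping and a potency found within twice the top tested dose; inconclusive means replicate test calls disagree with each other; inactive means all replicate tests inactive, including signal rising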
row,SMILES,"activity change, negative = inhibition"
1,CC(C)N1C[C@H](C)[C@@H](CN(C)Cc2ccccc2Cl)Oc2c(NC(=O)c3ccncc3)cccc2C1=O,inconclusive: -113%
2,CC(C)N1C[C@H](C)[C@@H](CN(C)C(=O)OC(C)(C)C)Oc2c(C#N)cccc2C1=O,inconclusive: -31.9%
3,C[C@H]1CN([C@@H](C)CO)C(=O)c2cccc(NC(=O)c3ccncc3)c2O[C@@H]1CN(C)Cc1ccc(-c2ccccc2)cc1,inconclusive: -84.4%
